Experimental findings from article PMC4673164 are described below.

The chains behind the UniProt entries cited, without tags or fusion partners.
UniProt P15056: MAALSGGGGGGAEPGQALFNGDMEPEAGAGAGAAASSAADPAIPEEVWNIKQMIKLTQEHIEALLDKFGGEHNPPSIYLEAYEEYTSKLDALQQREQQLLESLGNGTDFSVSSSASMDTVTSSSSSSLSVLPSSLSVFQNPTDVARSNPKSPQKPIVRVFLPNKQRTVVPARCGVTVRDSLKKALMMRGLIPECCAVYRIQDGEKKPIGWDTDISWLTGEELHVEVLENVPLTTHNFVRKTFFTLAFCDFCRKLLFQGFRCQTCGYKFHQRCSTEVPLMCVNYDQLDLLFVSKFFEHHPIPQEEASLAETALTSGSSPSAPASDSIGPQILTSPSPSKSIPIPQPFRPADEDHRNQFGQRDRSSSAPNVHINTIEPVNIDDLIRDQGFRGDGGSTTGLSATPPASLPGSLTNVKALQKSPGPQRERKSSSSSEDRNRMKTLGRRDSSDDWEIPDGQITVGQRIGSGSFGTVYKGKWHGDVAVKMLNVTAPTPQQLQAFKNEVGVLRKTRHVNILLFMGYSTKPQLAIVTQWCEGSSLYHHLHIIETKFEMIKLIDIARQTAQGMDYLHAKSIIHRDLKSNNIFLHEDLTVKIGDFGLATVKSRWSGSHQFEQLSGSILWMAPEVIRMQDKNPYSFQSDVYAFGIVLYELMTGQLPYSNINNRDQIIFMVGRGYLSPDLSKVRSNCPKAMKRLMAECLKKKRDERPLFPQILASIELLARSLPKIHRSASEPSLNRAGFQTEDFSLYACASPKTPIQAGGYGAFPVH

For this assay, the target named is T1, TRAP1 (human) (UniProt Q12931).
T1 sequence: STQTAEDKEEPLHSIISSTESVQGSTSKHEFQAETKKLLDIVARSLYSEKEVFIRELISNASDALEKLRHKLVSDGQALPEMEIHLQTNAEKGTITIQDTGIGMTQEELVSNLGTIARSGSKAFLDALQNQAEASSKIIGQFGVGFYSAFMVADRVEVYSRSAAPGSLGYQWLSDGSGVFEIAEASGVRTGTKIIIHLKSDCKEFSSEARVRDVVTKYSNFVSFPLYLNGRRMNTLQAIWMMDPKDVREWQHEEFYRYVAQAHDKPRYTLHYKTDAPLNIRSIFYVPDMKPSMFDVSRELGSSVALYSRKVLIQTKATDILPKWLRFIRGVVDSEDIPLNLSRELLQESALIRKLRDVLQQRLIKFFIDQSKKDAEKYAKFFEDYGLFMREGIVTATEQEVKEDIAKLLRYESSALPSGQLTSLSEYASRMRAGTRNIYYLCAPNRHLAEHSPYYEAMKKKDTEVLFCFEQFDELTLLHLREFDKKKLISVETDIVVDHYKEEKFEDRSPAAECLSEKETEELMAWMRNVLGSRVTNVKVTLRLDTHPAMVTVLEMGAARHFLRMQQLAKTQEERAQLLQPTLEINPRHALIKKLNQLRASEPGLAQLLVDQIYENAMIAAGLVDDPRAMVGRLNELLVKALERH
In words: co-IP; total lysates of MCF7 cells co-transfected with TRAP1 and BRAF; immunoprecipitated with anti-TRAP1, immunoblotted; 18 h at 4°C, protein A/G-agarose, washed twice in lysis buffer. (In western blotting, separated proteins are transferred to a membrane and probed.)

Results are given in words; binding and its absence hold for the method and conditions named. In cells and extracts the contact can be indirect. Some entries that bind do so weakly or less than the wild type.

With “BRAF wild type (BRAF-myc) (from UniProt P15056 1-766)”, the binding entry is given as “binds”.
